B1: YCR002C (protein, UniProt P25342 1-322, looked up)
Cell division control protein …: MDPLSSVQPASYVGFDTITNQIEHRLLKKGFQFNIMVVGQSGLGKSTLINTLFASHLIDSATGDDISALPVTKTTEMKISTHTLVEDRVRLNINVIDTPGFGDFIDNSKAWEPIVKYIKEQHSQYLRKELTAQRERFITDTRVHAILYFLQPNGKELSRLDVEALKRLTEIANVIPVIGKSDTLTLDERTEFRELIQNEFEKYNFKIYPYDSEELTDEELELNRSVRSIIPFAVVGSENEIEINGETFRGRKTRWSAINVEDINQCDFVYLREFLIRTHLQDLIETTSYIHYEGFRARQLIALKENANSRSSAHMSSNAIQR
B2: YDR379W (protein, UniProt Q06407 1-1009, looked up)
Rho-type GTPase-activating …: MSADPINDQSSLCVRCNKSIASSQVYELESKKWHDQCFTCYKCDKKLNADSDFLVLDIGTLICYDCSDKCTNCGDKIDDTAIILPSSNEAYCSNCFRCCRCSNRIKNLKYAKTKRGLCCMDCHEKLLRKKQLLLENQTKNSSKEDFPIKLPERSVKRPLSPTRINGKSDVSTNNTAISKNLVSSNEDQQLTPQVLVSQERDESSLNDNNDNDNSKDREETSSHARTVSIDDILNSTLEHDSNSIEEQSLVDNEDYINKMGEDVTYRLLKPQRANRDSIVVKDPRIPNSNSNANRFFSIYDKEETDKDDTDNKENEIIVNTPRNSTDKITSPLNSPMAVQMNEEVEPPHGLALTLSEATKENNKSSQGIQTSTSKSMNHVSPITRTDTVEMKTSTSSSTLRLSDNGSFSRPQTADNLLPHKKVAPSPNKKLSRSFSLKSKNFVHNLKSKTSEMLDPKHPHHSTSIQESDTHSGWGVSSTHTNIRKSKAKKNPVSRGQSDSTIYNTLPQHGNFTVPEFNHKKAQSSLGSISKKQNSNDTATNRRINGSFTSSSSGHHIAMFRTPPLESGPLFKRPSLSSESAHHRSSSLQTSRSTNALLEDDSTKVDATDESATSLEKDFYFTELTLRKLKLDVRELEGTKKKLLQDVENLRLAKERLLNDVDNLTREKDKQSASSRESLEQKENIATSITVKSPSSNSDRKGSISNASPKPRFWKIFSSAKDHQVGDLESQQRSPNSSSGGTTNIAQKEISSPKLIRVHDELPSPGKVPLSPSPKRLDYTPDGSHLYGSSLQARCAYEKSTVPIIIRCCIDRIEKDDIGLNMEGLYRKSGSQTLVEEIENEFAQNNSLHSDTLSPKLNALLNQDIHAVASVLKRYLRKLPDPVLSFSIYDALIDLVRNNQLIERLPLNNDKFLDSPQKVTIYEMVLKSLLEIFKILPVEHQEVLKVLAAHIGKVRRCSERNLMNLHNLSLVFAPSLIHDFDGEKDIVDMKERNYIVEFILGNYRDIFKQA
B3: YBR200W (protein, UniProt P29366 1-551, looked up)
Bud emergence protein 1: MLKNFKLSKRDSNGSKGRITSADISTPSHDNGSVIKHIKTVPVRYLSSSSTPVKSQRDSSPKNRHNSKDITSPEKVIKAKYSYQAQTSKELSFMEGEFFYVSGDEKDWYKASNPSTGKEGVVPKTYFEVFDRTKPSSVNGSNSSSRKVTNDSLNMGSLYAIVLYDFKAEKADELTTYVGENLFICAHHNCEWFIAKPIGRLGGPGLVPVGFVSIIDIATGYATGNDVIEDIKSVNLPTVQEWKSNIARYKASNISLGSVEQQQQQSITKPQNKSAKLVDGELLVKASVESFGLEDEKYWFLVCCELSNGKTRQLKRYYQDFYDLQVQLLDAFPAEAGKLRDAGGQWSKRIMPYIPGPVPYVTNSITKKRKEDLNIYVADLVNLPDYISRSEMVHSLFVVLNNGFDREFERDENQNNIKTLQENDTATFATASQTSNFASTNQDNTLTGEDLKLNKKLSDLSLSGSKQAPAQSTSGLKTTKIKFYYKDDIFALMLKGDTTYKELRSKIAPRIDTDNFKLQTKLFDGSGEEIKTDSQVSNIIQAKLKISVHDI
B4: YML016C (protein, UniProt P26570 2-692, looked up)
Serine/threonine-protein …: GNSSSKSSKKDSHSNSSSRNPRPQVSRTETSHSVKSAKSNKSSRSRRSLPSSSTTNTNSNVPDPSTPSKPNLEVNHQRHSSHTNRYHFPSSSHSHSNSQNELLTTPSSSSTKRPSTSRRSSYNTKAAADLPPSMIQMEPKSPILKTNNSSTHVSKHKSSYSSTYYENALTDDDNDDKDNDISHTKRFSRSSNSRPSSIRSGSVSRRKSDVTHEEPNNGSYSSNNQENYLVQALTRSNSHASSLHSRKSSFGSDGNTAYSTPLNSPGLSKLTDHSGEYFTSNSTSSLNHHSSRDIYPSKHISNDDDIENSSQLSNIHASMENVNDKNNNITDSKKDPNEEFNDIMQSSGNKNAPKKFKKPIDIDETIQKLLDAGYAAKRTKNVCLKNNEILQICIKAREIFLSQPSLLELSPPVKIVGDVHGQYGDLLRLFTKCGFPPSSNYLFLGDYVDRGKQSLETILLLFCYKIKYPENFFLLRGNHECANVTRVYGFYDECKRRCNIKIWKTFIDTFNTLPLAAIVAGKIFCVHGGLSPVLNSMDEIRHVVRPTDVPDFGLINDLLWSDPTDSPNEWEDNERGVSYCYNKVAINKFLNKFGFDLVCRAHMVVEDGYEFFNDRSLVTVFSAPNYCGEFDNWGAVMSVSEGLLCSFELLDPLDSAALKQVMKKGRQERKLANQQQQMMETSITNDNESQQ
B5: YKL051W (protein, UniProt P35735 1-353, looked up)
Protein SFK1: MIQFKSPGNWLFIVPWIAFIPWYGMLIAMLICWASQGHPIYWFMHSEQFPVYISDIGATNLRPLFISCAGWQGLGYVITVALEFFQRSGYLPFQLKKKDPSISDSTSYAEKLHSGKYLMPPYYTKDERNLIFAAFVLGSIGELALLFSSIFSTALYHRVHIAMVSVFVVFMFLSTCCLIAEYFLMGRHYASVHPLASPHFNPQSSEKSFNQDYNTVDELPWYKWKGHVWNKFTISATLKVIWLTLAVVWAICFGAINDRSKSACFEWLLAFWFGIIFMILSADFYLGGRYRQSRYFNHVESFSGYYKYDKALGLYHSEDVLPSDDNAGVIATETASSNIYNNSSSNESIQVVV

Some results come without the dose or concentration used.

The subject of one data set is BOI1. Nature of the data set: DHFR-PCA on solid medium, bait BOI1 (Fig. 1B). Format: cell-based, Saccharomyces cerevisiae. Set-up: key: 0: SH3-independent; 1: SH3-dependent PPIs; 2: SH3-inhibited PPIs. The conditions noted are these: bait BOI1, label = prey. The text has this:
(§1) Supplement 41467_2021_21873_MOESM8_ESM.xlsx, sheet "Fig1B" | column: medsize; medrep; Ratio; Score
B1 came in with a Score of 1.

For B2, the Score was 2.

With B3, the Score was 0.

Molecule B4 showed a Score of 2.

B5 showed a Score of 2.

The next data set deals with BBC1. Nature of the data set: DHFR-PCA on solid medium, bait BBC1 (Fig. 1B). It is filed as cell-based, Saccharomyces cerevisiae. The note with it: bait BBC1, label = prey. Set-up: key: 0: SH3-independent; 1: SH3-dependent PPIs; 2: SH3-inhibited PPIs.
Excerpt: as §1
In turn, B4 displayed a Score of 1.

The molecule B5 gave a Score of 0.

A further data set deals with BOI2. Nature of the data set: DHFR-PCA on solid medium, bait BOI2 (Fig. 1B). It is filed as cell-based, Saccharomyces cerevisiae. Set-up: key: 0: SH3-independent; 1: SH3-dependent PPIs; 2: SH3-inhibited PPIs. The note with it: bait BOI2, label = prey.
Excerpt: as §1
In turn, B1 yielded a Score of 0.

On to B2, for which the Score was 0.

The molecule B3 registered a Score of 0.

As for B4, the Score is reported as 0.

Regarding B5, the Score stood at 0.
